Consider 65 compounds from PubChem BioAssay AID493027 (The Scripps Research Institute Molecular Screening Center, 2011).

Protein sequences, listed by entry. Tags and fused reporters are not part of them. Lines headed by an entry give the natural chain unless they say otherwise; changes in a name come on top.
UniProt O60240: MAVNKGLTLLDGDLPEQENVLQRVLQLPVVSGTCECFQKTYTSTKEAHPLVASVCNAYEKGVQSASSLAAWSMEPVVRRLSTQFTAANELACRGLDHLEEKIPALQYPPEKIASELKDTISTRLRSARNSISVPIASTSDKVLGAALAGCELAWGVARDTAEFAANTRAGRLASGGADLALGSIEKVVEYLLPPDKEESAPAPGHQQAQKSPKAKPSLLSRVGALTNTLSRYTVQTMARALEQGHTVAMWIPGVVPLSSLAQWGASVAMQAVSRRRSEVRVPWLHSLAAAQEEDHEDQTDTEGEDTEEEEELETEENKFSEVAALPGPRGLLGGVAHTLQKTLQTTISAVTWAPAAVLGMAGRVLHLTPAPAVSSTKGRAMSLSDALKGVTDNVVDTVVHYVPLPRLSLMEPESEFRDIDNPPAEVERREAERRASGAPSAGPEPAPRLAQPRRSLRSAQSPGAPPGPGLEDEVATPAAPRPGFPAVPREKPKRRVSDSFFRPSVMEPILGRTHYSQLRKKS
UniProt Q8WTS1: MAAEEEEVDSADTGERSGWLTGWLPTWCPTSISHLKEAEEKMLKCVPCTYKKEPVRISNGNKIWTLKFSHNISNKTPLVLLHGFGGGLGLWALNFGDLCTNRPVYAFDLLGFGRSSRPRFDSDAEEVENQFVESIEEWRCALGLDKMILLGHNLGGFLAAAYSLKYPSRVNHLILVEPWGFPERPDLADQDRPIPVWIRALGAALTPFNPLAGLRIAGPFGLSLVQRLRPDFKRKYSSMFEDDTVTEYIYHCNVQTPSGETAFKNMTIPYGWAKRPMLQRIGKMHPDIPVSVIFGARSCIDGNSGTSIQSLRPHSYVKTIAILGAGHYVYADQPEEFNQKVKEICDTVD

Screen size: about 2,000 compounds; about 45 (2%) were called active.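 The calls were made as follows: active = inhibition above the screen-wide mean inhibition plus 3 SD (cut at about 44% in these data); inactive = the rest.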 The list shows a part of the results. Where a SMILES comes first, the peptide text is derived from it. [ ]: non-standard residue; d: D form. ξ: configuration not given here. ξV = CC(C)C(N)C(=O)O

This assay addresses Perilipin-1 (Homo sapiens) + 1-acylglycerol-3-phosphate O-acyltransferase ABHD5 (Homo sapiens) (UniProt O60240+Q8WTS1). As to the kind of experiment: ABHD5-PLIN1 interaction inhibitors, pilot screen, cell lysate, split luciferase complementation, luminescence, NIH validation set (AID 493027).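 Also: 0% = DMSO wells with the 100% control not disclosed.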 The following applies: split G. princeps luciferase complementation, 4 h; at 7.9 µM, stronger effect = higher value.
With `CCOc1ccccc1C(=O)NCCC(=O)O`, the inhibition is inactive: -2.91%.
Take `COc1cc2c(cc1OC)CN(C(=O)c1ccc(S(=O)(=O)N(C)c3ccccc3)cc1)CC2`: the inhibition was inactive: 14.8%.
Next, `CSc1ccc2c(c1)N(CCC1CCCCN1C)c1ccccc1S2` (stereo not given): inactive: 12.7%; `c1ccc(Cn2ncc3c(Nc4ccccc4)ncnc32)cc1`: inactive: 0.25%.
For the compound `CCCC(CCC)C(=O)OC1C[C@H]2CC[C@@H](C1)[N+]2(C)C` (stereo not given in full), the inhibition is inactive: -8.54%.
Then `O=C(OCCN1CCOCC1)c1cccs1`, with inactive: -1.51%; and `O=c1nc2sc3ccccc3n2c(=O)n1-c1ccc(Cl)cc1`, with inactive: 2.92%; and `COc1ccc(CCn2c(C)nc3c(c(=O)c4ccccc4n3C)c2=O)cc1`, with inactive: 15.1%.
Then `Cc1ccc(S(=O)(=O)NC(=O)NN2CCCCCC2)cc1`, with inactive: -16.1%.
Then `COc1ccccc1NC(=O)C12CCC(C)(C(=O)C1)C2(C)C` (stereo not given), with inactive: -0.67%; and `C[C@]12CC[C@@H]3c4ccc(OS(=O)(=O)O)cc4CC[C@H]3[C@@H]1CCC2=O`, with inactive: 1.29%.
As for `COC1(C)CC2C(CC1OC(=O)c1cc([N+](=O)[O-])cc([N+](=O)[O-])c1)C2(C)C` (stereo not given), the inhibition was inactive: -17.4%.
For the compound `CCN(CC)CCOC(=O)C(c1ccccc1)c1ccccc1`, the inhibition is inactive: -2.52%.
Then `OC(CCCN1CCCCC1)(c1ccccc1)c1ccccc1`, with inactive: 1.09%; and `Cn1nc(-c2ccccn2)nc2c(=O)n(C)c(=O)nc1-2`, with inactive: -29.3%; and `CCN(CC)CCNc1ccc(CO)c2sc3ccccc3c(=O)c12`, with inactive: 2.54%.
Then `Cc1ccc(O)c(CCc2ccccc2)n1`, with inactive: -1.66%.
Consider `CCCCC[C@H](O)/C=C/[C@@H]1[C@@H](C/C=C\CCCC(=O)OC)[C@@H](O)C[C@H]1O`, for which the inhibition was inactive: -10.7%.
On to `Fc1cc(F)cc(NC(=S)NCCCN2CCOCC2)c1`, for which the inhibition is inactive: -1.84%.
Next, `COc1ccc(C=O)c(OC)c1`: inactive: 0.71%; `Cc1ccsc1/C=C/C1=NCCCN1C`: inactive: 1.11%.
`CC1(C)C2CCC1(C(=O)O)c1nc3ccccc3nc12` (stereo not given): the inhibition is inactive: -5.53%.
Then `CC(OC(=O)c1cc(=O)[nH]c2ccccc12)C(=O)c1ccccc1` (stereo not given), with inactive: 4.11%; and `CCc1cc2c(=O)c(-c3nc(C)cs3)c(CCCC(=O)O)oc2cc1O`, with inactive: -2.3%; and `Cc1cnc(C(=O)NCCc2ccc(S(=O)(=O)NC(=O)NC3CCCCC3)cc2)cn1`, with inactive: 4.38%.
With `O=C(/C=C/c1ccccc1)/C=C/c1ccccc1`, the inhibition was active: 88.9%.
`Cc1ccccc1C(=O)Nc1ccccc1C(=O)NCC(C)C`: the inhibition is inactive: -6.24%.
Take `COc1ccc2[nH]c(=O)c(CN(C(=O)c3ccco3)C(C)C)cc2c1`: the inhibition is inactive: 0.59%.
As to `CCCCNc1ccc(C(=O)OCCN(C)C)cc1`, the inhibition is inactive: -2.61%.
Consider `O=C(CCSc1ccccc1)N1CCCC1`, for which the inhibition was inactive: -10.2%.
As for `COc1ccccc1C(CCN(Cc1ccccc1)C(C)=O)c1ccco1` (stereo not given), the inhibition is inactive: 9.44%.
Regarding `CCSC(SCC)[C@H](O)[C@@H](O)[C@H](O)[C@H](O)CO`, the inhibition is inactive: -4.44%.
Next, `Cc1ccc(NCCC(=O)c2ccccc2)cc1Cl`: inactive: -2.97%; `Cc1ccccc1C(OCCN(C)C)c1ccccc1` (stereo not given): inactive: 0.55%; `NCCCC(N)(C(=O)O)C(F)F` (stereo not given): inactive: -9.29%.
Then `COc1cc(/C=C(\C#N)C(=O)N2CCc3ccccc32)ccc1O`, with inactive: 42.5%; and `COc1c2ccoc2nc2c(OC)cccc12`, with inactive: -3.07%; and `CC(C)=CCC(C)(C)/C=N/NC(N)=O`, with inactive: -12.2%.
Then `CC(C)CN1CC(C(=O)O)CC1=O` (stereo not given), with inactive: 0.07%; and `CNc1c2c(nn1C)CCCC2`, with inactive: -8.89%.
On to `CC(=O)SC1CC2=CC(=O)CCC2(C)C2CCC3(C)C(CCC34CCC(=O)O4)C12` (stereo not given), for which the inhibition was inactive: 5.44%.
Then `COC(=O)C1=C(C)NC(C)=C(C(=O)OCCN(C)Cc2ccccc2)C1c1cccc([N+](=O)[O-])c1` (stereo not given), with inactive: -2.37%; and `COc1ccc(-c2nnc(-c3cc4c(ccc5ccccc54)oc3=O)o2)cc1`, with inactive: 1.44%.
Turning to `c1ccc(Nc2cccc3c(Nc4ccccc4)cccc23)cc1`, the inhibition is inactive: 0.52%.
Next, `O=C1C2C3C=CC(C4CC34)C2C(=O)N1/N=C/c1ccc(-c2ccc([N+](=O)[O-])cc2)o1` (stereo not given): inactive: 5.88%.
Next, `CC(C)NC(=O)c1ccc(C(C)C)cc1`: inactive: -3.94%; `CCc1oc2ccccc2c1C(=O)c1cc(Br)c(O)c(Br)c1`: active: 57.3%.
Then `COc1ccc(Cc2nc(-c3ccc(Br)cc3)no2)cc1`, with inactive: -12%; and `CC(C)(C)NCC(O)c1cc(O)cc(O)c1` (stereo not given), with inactive: -5.33%; and `COc1cc(C(=O)Nc2ccc(N(C)C)cc2)c([N+](=O)[O-])cc1OC`, with inactive: -0.33%.
`O=C1[C@@H]2CSCN2C(=O)CN1Cc1ccc(F)cc1`: the inhibition is inactive: -14.4%.
Next, `C=C(C)C(=O)Nc1ccc(NC(C)C)cc1`: inactive: 0.62%; `C#C[C@]1(O)CC[C@H]2[C@@H]3CCC4=C(CCC(=O)C4)[C@H]3CC[C@@]21C`: inactive: 5.83%.
Then `Cc1nc(NCc2ccco2)c(C#N)c2c1COC(C)(C)C2`, with inactive: -8.66%; and `COc1ccc(-c2nc(NC(C)=O)sc2-c2ccc(OC)cc2)cc1`, with inactive: 11.4%; and `CC(=O)NC(Cc1c[nH]c2ccccc12)C(=O)N/N=C/c1ccccc1` (stereo not given), with inactive: 2%.
For `CN(C)C(=O)CCCCCCCCC(=O)N(C)C`, the inhibition was inactive: 0.84%.
On to `CC(C)Oc1cccc(C(=O)N2CCCC2)c1`, for which the inhibition is inactive: -2.88%.
As to `C[N+](C)(C)CCOP(=O)([O-])OC[C@H](O)CO`, the inhibition was inactive: -1.99%.
Regarding `O=S(=O)(CCc1nc2ccccc2[nH]1)c1ccc(Cl)cc1`, the inhibition was inactive: -9.54%.
As to `CC(=O)NC(C(=O)NCC(N)=O)C(C)C` (stereo not given) (Ac-[ξV]-Gly-NH2), the inhibition is inactive: 0.28%.
With `CC(C)Cc1ccc(C(C)C(=O)O)cc1` (stereo not given), the inhibition is inactive: -4.08%.
As to `COCCc1ccc(OCC(O)CNC(C)C)cc1` (stereo not given), the inhibition is inactive: -13.7%.
Then `O=C1CN(O)C=C2N=c3ccccc3=C2N1c1ccc([N+](=O)[O-])cc1`, with inactive: 7.75%; and `CC(C)(C)NCC(O)COc1cccc2c1C[C@H](O)[C@H](O)C2` (stereo not given in full), with inactive: -0.3%.
